# Assay results: PubChem BioAssay AID540275 (National Center for Advancing Translational Sciences (NCATS), 2011)
# By UniProt entry, the sequences of proteins in these tests, tags left out.
# UniProt Q8NER1, whole entry, looked up: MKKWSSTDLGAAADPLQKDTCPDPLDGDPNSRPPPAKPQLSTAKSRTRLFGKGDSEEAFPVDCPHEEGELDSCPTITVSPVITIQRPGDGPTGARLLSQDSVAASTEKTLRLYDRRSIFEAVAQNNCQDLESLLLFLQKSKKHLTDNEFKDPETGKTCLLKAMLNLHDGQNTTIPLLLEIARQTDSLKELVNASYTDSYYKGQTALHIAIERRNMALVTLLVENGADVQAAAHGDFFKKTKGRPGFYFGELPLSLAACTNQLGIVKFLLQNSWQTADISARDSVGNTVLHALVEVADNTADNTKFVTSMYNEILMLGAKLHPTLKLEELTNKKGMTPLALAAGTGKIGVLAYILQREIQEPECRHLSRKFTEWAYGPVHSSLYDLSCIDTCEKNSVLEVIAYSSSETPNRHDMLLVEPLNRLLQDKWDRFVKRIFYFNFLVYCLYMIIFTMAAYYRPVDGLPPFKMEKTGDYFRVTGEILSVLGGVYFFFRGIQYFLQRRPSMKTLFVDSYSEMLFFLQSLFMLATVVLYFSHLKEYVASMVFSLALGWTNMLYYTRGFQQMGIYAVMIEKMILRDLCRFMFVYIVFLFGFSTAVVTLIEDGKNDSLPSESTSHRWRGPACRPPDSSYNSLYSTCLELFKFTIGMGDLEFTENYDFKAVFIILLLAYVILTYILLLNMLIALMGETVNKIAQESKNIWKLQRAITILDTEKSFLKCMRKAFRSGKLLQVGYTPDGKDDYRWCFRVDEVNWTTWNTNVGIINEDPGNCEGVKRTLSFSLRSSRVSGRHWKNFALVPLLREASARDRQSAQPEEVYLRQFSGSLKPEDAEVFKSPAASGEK
# Among all 320,000 compounds or so, about 620 (0.19%) were called active. The inconclusive results got no clear call from the source; some entries with a clear call stand among them for comparison. Cut-off read from the data, not from the text of the source: active = activation above about 80%; inconclusive = between about 30% and that limit; inactive = weaker than that.
# Target: Transient receptor potential cation channel subfamily V member 1 (Homo sapiens) (UniProt Q8NER1)
# Assay: HTS Assay for Compounds that Act as Agonists of the Vanilloid Receptor 1; note: 0% is about no effect
# Conditions: TRPV1-expressing cells, Fluo-8 calcium influx, agonist mode; at 8.33 µM, stronger effect = higher value
# Summary of the method: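 Cells expressing TRPV1 were dye-loaded with Fluo-8 and read kinetically: 10 s baseline, 3 min after compound (agonist portion), then 2 min after EC20 capsaicin (allosteric enhancer portion). Calcium-bound dye fluorescence at 480/520 nm.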
row,SMILES,activation
1,O=C(Nc1ccccc1)c1cc(S(=O)(=O)N2CCOCC2)cs1,inconclusive: 33.6%
2,CC(C)(C)N1C(=O)c2ccc(C(=O)Nc3ccc(O)cc3)cc2C1=O,inconclusive: 73.4%
3,CN(C)S(=O)(=O)c1ccc(NC(=O)c2ccc([N+](=O)[O-])cc2)cc1,inconclusive: 79%
4,O=C(Nc1cccc(Cl)c1)c1ccc(=O)[nH]n1,inconclusive: 37.8%
5,COc1cc(OC)c(NC(=O)CCNC(=O)Cn2cnc3ccccc3c2=O)cc1Cl,inactive: 6.25%
6,COc1ccc(CCC(=O)Nc2ccc3c(c2)OCO3)cc1,inconclusive: 34.1%
7,Cc1ccc(S(=O)(=O)Oc2ccc(/C=C3\C(=N)N4N=C(S(C)(=O)=O)SC4=NC3=O)cc2)cc1,inactive: -3.2%
8,CC(=O)Nc1cc2nn(-c3ccccc3)nc2cc1C,inactive: -2.02%
9,S=c1[nH]nc(-c2ccncc2)n1/N=C/c1cccc(Cl)c1,inactive: -0.323%
10,CCOc1ccc(-n2c(C)c(C(C)=O)c3cc(OCC(N)=O)ccc32)cc1,inconclusive: 30.7%
11,Oc1ccc(Cl)cc1CNc1ccccn1,inconclusive: 38.7%
12,COc1cc(C(=O)Nc2ccc(-c3nc4cc(C)ccc4o3)c(O)c2)cc(OC)c1OC,inactive: -0.0188%
13,O=C(Nc1ccc(Cl)c(S(=O)(=O)N2CCCCC2)c1)c1ccncc1,inconclusive: 36.7%
14,O=C(Nc1nc2ccccc2s1)C1CC(=O)N(c2ccc(Cl)cc2)C1 (stereo not given),inconclusive: 40.1%
15,COc1cc(/C=C2\SC(N3CCc4ccccc4C3)=NC2=O)cc(OC)c1OC,inconclusive: 61.9%
16,CN(Cc1ccc(C(C)(C)C)cc1)C(=O)Cc1ccc(S(=O)(=O)N2CCOCC2)s1,inconclusive: 36.3%
17,CC(=O)N1CCN(C(=O)C(Cc2ccccc2)NC(=O)c2ccccc2)CC1 (stereo not given),inactive: 0.102%
18,CCCOc1ccc(-c2cnc(SCC(N)=O)nc2N)cc1,inconclusive: 52.8%
19,O=C(OCC(=O)N1CCOCC1)c1c(Cl)ccc(Cl)c1Cl,inactive: 22%
20,COc1ccc(C(=O)Nc2cc(-c3ccc(C)cc3)no2)cc1,inconclusive: 50.8%
21,CC(NC(=O)Cc1cccc(C(F)(F)F)c1)c1ccc(F)cc1 (stereo not given),inconclusive: 70.5%
22,CC1CCN(C(=O)COC(=O)c2cc(Cl)cc(Cl)c2N)CC1,inconclusive: 38.7%
23,CC(=C\c1ccccc1)/C=C1/SC(=S)N(CCC(=O)Nc2ccccn2)C1=O,inactive: -0.541%

row,SMILES,activation
1,COc1ccc(CN(C(=O)c2cccs2)c2ccccc2C(=O)O)cc1,inactive: 0.773%
2,O=C(c1cc(C2CC2)nn1-c1ccccc1)N1CCN(Cc2ccccc2F)CC1,inconclusive: 66.1%
3,CC1CCc2sc(C(=O)Nc3ccc(N4CCOCC4)cc3)cc2C1 (stereo not given),inconclusive: 42.7%
4,O=C(NC1CCCCC1)C(c1ccc(F)cc1)N(C(=O)c1csnn1)C1CCCC1 (stereo not given),inconclusive: 34.7%
5,CCOC(=O)c1sc(NC(=O)c2cccnc2)c(C#N)c1C,inactive: -0.128%
6,CC(C)(C)NC(=O)C(=O)N/N=C/c1ccc(Br)cc1,inconclusive: 32.9%
7,CSc1cccc(NC(=O)CSc2ccc(Cl)cc2)c1,inconclusive: 47.3%
8,Cc1cccc(C)c1NC(=O)C(NC=O)c1ccccc1Cl (stereo not given),inactive: -1.08%
9,CC(=O)Oc1cc(C)cc2oc(=O)cc(-c3ccccc3)c12,inconclusive: 30.9%
10,CS(=O)(=O)N1CCN(c2ccc(C(=O)NC3C4CC5CC(C4)CC3C5)cc2[N+](=O)[O-])CC1 (stereo not given),inconclusive: 40.6%
11,Cc1ccc(S(=O)(=O)/N=C2/C=C(Sc3ncn[nH]3)C(=O)c3ccccc32)c(C)c1,inactive: -1.12%
12,CSc1cccc(NC(=S)N(CCCN2CCCC(C)C2)Cc2cccs2)c1 (stereo not given),inconclusive: 31.3%
13,CC(C)c1ccc2oc(=O)cc(CN3CCCCC3)c2c1,inconclusive: 44.9%
14,COc1cc(OC)c(C(=O)Nc2cccc(C(C)=O)c2)cc1OC,inactive: -2.01%
15,CN(CC(=O)Nc1ccc(OC(F)(F)F)cc1)C1CCCCC1,inconclusive: 45.7%
16,CCCCN(C(=O)c1ccc2c(c1)OCO2)C1CCS(=O)(=O)C1 (stereo not given),inactive: -0.847%
17,COCc1cc(=O)[nH]c2cc(NC(=O)C3CC3)c(C)cc12,inactive: 3.07%
18,Cc1ccc(CN2CCN(Cc3cnc(C)s3)CC2CCO)o1 (stereo not given),inactive: -4.42%
19,COc1ccc(NC(=O)N2CCCC(c3ccccc3)C2)cc1 (stereo not given),inconclusive: 38.9%
20,COc1ccc2c(c1)CC/C(=C\C=C\c1ccccc1)C2=O,inconclusive: 38.3%
21,c1ccc(Nc2ncnc3sccc23)cc1,inconclusive: 30.2%
22,c1ccc2c(c1)oc1c(N3CCN(Cc4ccc5c(c4)OCO5)CC3)ncnc12,inconclusive: 46.9%
23,COc1ccc(C2/C=C\CN(C(=O)c3ccccc3)[C@H](Cc3ccccc3)C(=O)N2Cc2ccc(F)cc2)cc1 (stereo not given in full),inconclusive: 61.3%

row,SMILES,activation
1,CC(C)c1ccc(NC(=O)CCN2C(=O)c3ccc([N+](=O)[O-])cc3C2=O)cc1,inconclusive: 30.1%
2,CCCCCCc1cc2cc(-c3nnc(-c4ccccc4O)o3)c(=O)oc2cc1O,inconclusive: 37.9%
3,Cc1cccc(OCCCSc2nc3ccccc3[nH]2)c1,inconclusive: 44.7%
4,Cc1cccc(NS(=O)(=O)c2ccc(C)c(C(=O)NCC(c3cccs3)N(C)C)c2)c1 (stereo not given),inactive: 1.89%
5,Cc1ccc2c(c1)NCC(C(=O)NC1CCC(C)CC1)O2 (stereo not given),inconclusive: 33.3%
6,COc1ccc(-c2csc(NC(=O)Cc3ccccc3F)n2)cc1OC,inconclusive: 54.9%
7,COC(=O)CCCC1=CC2=CC(=O)C(C)(OC(=O)c3cccs3)C(=O)C2=CN1CCc1ccccn1 (stereo not given),inactive: -0.118%
8,CCC(=O)OCC(=O)c1cc(C)n(-c2ccc(Br)cc2)c1C,inconclusive: 34.5%
9,O=C1c2ccccc2C(=O)N1CCSc1nc2ccccc2c(=O)n1CCCN1CCOCC1,inactive: -1.61%
10,O=C(NCCc1ccc(Cl)cc1Cl)c1cccnc1,inconclusive: 38.9%
11,CC12COC3(C(=O)NCCc4ccccc4)CC1CCC32C (stereo not given),inconclusive: 46.9%
12,COc1ccc(-c2cc(C(=O)Nc3c(C)nn(Cc4ccccc4Cl)c3C)no2)cc1OC,inactive: -0.0204%
13,Cc1c(C(=O)N(C)C)c2ccc(Cl)cc2n1O,inactive: -6.04%
14,CCOc1ccccc1N1CCN(C(=S)NCc2ccc(Cl)cc2)CC1,inconclusive: 41.7%
15,CNc1oc(-c2cccc3ccccc23)nc1C#N,inactive: 16.5%
16,COC(=O)c1ccc(CNC(=O)COC(=O)C23CC4CC(CC(C4)C2)C3)cc1,inconclusive: 68.8%
17,COc1ccc2c(c1)cc(C(=O)N/N=C/c1c(O)c(C(=O)O)cc3ccccc13)n2C,inactive: 16.2%
18,COc1ccc(/C=C/C(=O)Nc2ccc(-c3nnc4n3CCCCC4)cc2)c(OC)c1,inactive: 3.43%
19,O=C(CSc1nc(C2CCCCC2)n(-c2ccccc2)n1)NCC(F)(F)F,inconclusive: 40.8%
20,CN(C)c1ccc(NC(=O)c2cccc([N+](=O)[O-])c2)c2ccccc12,active: 83%
21,COC(=O)c1[nH]c2ccc(Br)cc2c1NC(=O)CN1CCCCC1CCO (stereo not given),inactive: -0.88%
22,CCCC(=O)Nc1cc(C)c2c(=O)oc3ccccc3c2n1,inconclusive: 30.9%
23,COCCOC(=O)/C(=C\c1cc(C(C)(C)C)c(O)c(C(C)(C)C)c1)C(C)=O,inconclusive: 30.6%

# Exported with bars between the fields: part of the list above.
row | SMILES | activation
11 | Oc1ccc(Cl)cc1CNc1ccccn1 | inconclusive: 38.7%
12 | COc1cc(C(=O)Nc2ccc(-c3nc4cc(C)ccc4o3)c(O)c2)cc(OC)c1OC | inactive: -0.0188%
13 | O=C(Nc1ccc(Cl)c(S(=O)(=O)N2CCCCC2)c1)c1ccncc1 | inconclusive: 36.7%

# More records:

row,SMILES,activation
1,COc1ccc2nc(NC(=O)c3cccs3)sc2c1,inconclusive: 72.5%
2,Cn1c(O)c(C=Nc2ccc(Br)cc2)sc1=O,inconclusive: 58.5%
3,CC(=O)NCCCc1nc2ccccc2n1Cc1ccccc1C,inconclusive: 68.8%
4,CCCCCC(=O)Nc1cc(S(=O)(=O)N2CCOCC2)ccc1N1CCCCC1,inconclusive: 33.4%
5,COc1ccc(Nc2nc(NCc3ccco3)nc(N3CCOCC3)n2)cc1,active: 85.8%
6,CCCCCCCC1CC(CSc2ncn[nH]2)OC1=O (stereo not given),inconclusive: 61%
7,CCN(CC)c1ccc2cc(C(C)=O)c(=O)oc2c1,inconclusive: 70.4%
8,CC(=O)c1cccc(NC(=O)C2CCN(S(=O)(=O)c3ccccc3)CC2)c1,inconclusive: 57.4%
9,O=C(CSc1nc2ccccc2[nH]1)NCc1ccc(F)cc1,inconclusive: 38%
10,C[C@@H](NC(=O)OC(C)(C)C)C(=O)NCC1CCC(C(=O)N[C@@H](Cc2ccccc2)C(=O)O)CC1 (stereo not given in full),inactive: 4.55%
11,COc1cc(OC)c2c(OC)cccc2n1,inactive: -2.15%
12,O=C(Nc1ccnn1C1CCN(Cc2ccccc2)CC1)c1ccccc1Cl,inactive: 3.18%
13,O=C(/C=C/c1ccc(Cl)cc1Cl)NC(=S)Nc1ccc(CN2CCOCC2)cc1,inactive: 0.0246%
14,Cc1ncsc1CCOC(=O)C1C2CC3CC(C2)CC1C3 (stereo not given),inconclusive: 38.9%
15,COc1ccc(CNCCC(c2ccc(OC(C)C)cc2)C(C)C)cc1OC (stereo not given),inactive: 11.6%
16,Cc1ccc(/C=N/n2c(-c3cccnc3)n[nH]c2=S)s1,inactive: -4.83%
17,Cc1ccc(C(CNC(=O)Nc2ccc(Cl)cc2)N2CCN(C)CC2)cc1 (stereo not given),inactive: 1.36%
18,Cc1ccc2nc(NC(=O)c3ccc4c(c3)OCO4)sc2c1,active: 81.8%
19,CCOC(=O)Cc1csc(NC(=O)Nc2ccccc2)n1,inconclusive: 32.8%
20,CCOC(=O)C1=C(C)N=C2SC(C)C(=O)N2C1c1ccc(C(=O)OC)cc1 (stereo not given),inactive: 16.1%
21,O=c1cc2c(nn1Cc1ccc(F)cc1)-c1ccccc1CC2,inconclusive: 49.7%

# Looked up above.
# O=C(CSc1nc2ccccc2[nH]1)NCc1ccc(F)cc1 – activation: inconclusive: 38%
# C[C@@H](NC(=O)OC(C)(C)C)C(=O)NCC1CCC(C(=O)N[C@@H](Cc2ccccc2)C(=O)O)CC1 (stereo not given in full) – activation: inactive: 4.55%
# CCN(CC)c1ccc2cc(C(C)=O)c(=O)oc2c1 – activation: inconclusive: 70.4%
